Patent US20250283871A1, “COMPOSITIONS AND METHODS FOR MODULATING THE INTERACTION BETWEEN SS18-SSX FUSION ONCOPROTEIN AND NUCLEOSOMES” (Dana-Farber Cancer Institute, Inc., priority 2020, published 2025)

Test system: BAF complex subunits and histone proteins
Test: Mass spectrometry proteomics of purified HA-SS18 WT and HA-SS18-SSX1 complexes (Tables 5A-5E)
Set-up: species or system human
Settings: for Total (total peptides) / Unique (unique peptides) / Total (peptides) / Unique (peptides): HEK-293T; for Total / Unique: HA-SS18SSX1_CHR_peptides; for Total: total peptides of the identified protein; for Unique: unique peptides of the identified protein
[1] = HA-SS18SSX1_CHR_peptides: protein identified in the HA-SS18-SSX1 purification from solubilized chromatin (CHR)
[2] = HA-SS18SSX1 purification, NE (soluble nuclear extract) fraction, peptides per identified protein
[3] = HA-SS18WT_CHR_peptides: HA-SS18 WT purification from nuclease-treated solubilized chromatin (CHR), label = protein identified
[4] = HA-SS18WT_NE_peptides: HA-SS18 WT complexes purified from nuclear extract (NE), label = protein identified (Gene Symbol)
[5] = HA-SS18WT_CHR_peptides: protein identified in HA-SS18 WT BAF complex purification from nuclease-treated solubilized chromatin (CHR)

Row | Molecule | Total (total peptides) [1] | Unique (unique peptides) [1] | Total (total peptides) [2] | Unique (unique peptides) [2] | Total (peptides) [3] | Unique (peptides) [3] | Total (peptides) [4] | Unique (peptides) [4] | Total | Unique | Total (total peptides) [5] | Unique (unique peptides) [5]
1 | VDAC2 (protein, UniProt P45880 2-294, looked up) Non-selective voltage-gated …: ATHGQTCARPMCIPPSYADLGKAARDIFNKGFGFGLVKLDVKTKSCSGVEFSTSGSSNTDTGKVTGTLETKYKWCEYGLTFTEKWNTDNTLGTEIAIEDQICQGLKLTFDTTFSPNTGKKSGKIKSSYKRECINLGCDVDFDFAGPAIHGSAVFGYEGWLAGYQMTFDSAKSKLTRNNFAVGYRTGDFQLHTNVNDGTEFGGSIYQKVCEDLDTSVNLAWTSGTNCTRFGIAAKYQLDPTASISAKVNNSSLIGVGYTQTLRPGVKLTLSALVDGKSINAGGHKVGLALELEA | 4 | 4 | 7 | 7 | 5 | 5 | 5 | 5 |  |  |  | 
2 | ATAD3A (protein, UniProt Q9NVI7 2-586, looked up) ATPase family AAA …: SWLFGINKGPKGEGAGPPPPLPPAQPGAEGGGDRGLGDRPAPKDKWSNFDPTGLERAAKAARELEHSRYAKDALNLAQMQEQTLQLEQQSKLKEYEAAVEQLKSEQIRAQAEERRKTLSEETRQHQARAQYQDKLARQRYEDQLKQQQLLNEENLRKQEESVQKQEAMRRATVEREMELRHKNEMLRVEAEARARAKAERENADIIREQIRLKAAEHRQTVLESIRTAGTLFGEGFRAFVTDWDKVTATVAGLTLLAVGVYSAKNATLVAGRFIEARLGKPSLVRETSRITVLEALRHPIQVSRRLLSRPQDALEGVVLSPSLEARVRDIAIATRNTKKNRSLYRNILMYGPPGTGKTLFAKKLALHSGMDYAIMTGGDVAPMGREGVTAMHKLFDWANTSRRGLLLFVDEADAFLRKRATEKISEDLRATLNAFLYRTGQHSNKFMLVLASNQPEQFDWAINDRINEMVHFDLPGQEERERLVRMYFDKYVLKPATEGKQRLKLAQFDYGRKCSEVARLTEGMSGREIAQLAVSWQATAYASEDGVLTEAMMDTRVQDAVQQHQQKMCWLKAEGPGRGDEPSPS |  |  | 14 | 13 | 3 | 3 | 20 | 15 | 4 | 4 |  | 
3 | CDC40 (protein, UniProt O60508 1-579, looked up) Pre-mRNA-processing factor 17: MSAAIAALAASYGSGSGSESDSDSESSRCPLPAADSLMHLTKSPSSKPSLAVAVDSAPEVAVKEDLETGVHLDPAVKEVQYNPTYETMFAPEFGPENPFRTQQMAAPRNMLSGYAEPAHINDFMFEQQRRTFATYGYALDPSLDNHQVSAKYIGSVEEAEKNQGLTVFETGQKKTEKRKKFKENDASNIDGFLGPWAKYVDEKDVAKPSEEEQKELDEITAKRQKKGKQEEEKPGEEKTILHVKEMYDYQGRSYLHIPQDVGVNLRSTMPPEKCYLPKKQIHVWSGHTKGVSAVRLFPLSGHLLLSCSMDCKIKLWEVYGERRCLRTFIGHSKAVRDICFNTAGTQFLSAAYDRYLKLWDTETGQCISRFTNRKVPYCVKFNPDEDKQNLFVAGMSDKKIVQWDIRSGEIVQEYDRHLGAVNTIVFVDENRRFVSTSDDKSLRVWEWDIPVDFKYIAEPSMHSMPAVTLSPNGKWLACQSMDNQILIFGAQNRFRLNKKKIFKGHMVAGYACQVDFSPDMSYVISGDGNGKLNIWDWKTTKLYSRFKAHDKVCIGAVWHPHETSKVITCGWDGLIKLWD |  |  |  |  |  |  |  |  | 4 | 4 | 1 | 1
4 | TRIM24 (protein, UniProt O15164 1-1050, looked up) Transcription intermediary …: MEVAVEKAVAAAAAASAAASGGPSAAPSGENEAESRQGPDSERGGEAARLNLLDTCAVCHQNIQSRAPKLLPCLHSFCQRCLPAPQRYLMLPAPMLGSAETPPPVPAPGSPVSGSSPFATQVGVIRCPVCSQECAERHIIDNFFVKDTTEVPSSTVEKSNQVCTSCEDNAEANGFCVECVEWLCKTCIRAHQRVKFTKDHTVRQKEEVSPEAVGVTSQRPVFCPFHKKEQLKLYCETCDKLTCRDCQLLEHKEHRYQFIEEAFQNQKVIIDTLITKLMEKTKYIKFTGNQIQNRIIEVNQNQKQVEQDIKVAIFTLMVEINKKGKALLHQLESLAKDHRMKLMQQQQEVAGLSKQLEHVMHFSKWAVSSGSSTALLYSKRLITYRLRHLLRARCDASPVTNNTIQFHCDPSFWAQNIINLGSLVIEDKESQPQMPKQNPVVEQNSQPPSGLSSNQLSKFPTQISLAQLRLQHMQQQVMAQRQQVQRRPAPVGLPNPRMQGPIQQPSISHQQPPPRLINFQNHSPKPNGPVLPPHPQQLRYPPNQNIPRQAIKPNPLQMAFLAQQAIKQWQISSGQGTPSTTNSTSSTPSSPTITSAAGYDGKAFGSPMIDLSSPVGGSYNLPSLPDIDCSSTIMLDNIVRKDTNIDHGQPRPPSNRTVQSPNSSVPSPGLAGPVTMTSVHPPIRSPSASSVGSRGSSGSSSKPAGADSTHKVPVVMLEPIRIKQENSGPPENYDFPVVIVKQESDEESRPQNANYPRSILTSLLLNSSQSSTSEETVLRSDAPDSTGDQPGLHQDNSSNGKSEWLDPSQKSPLHVGETRKEDDPNEDWCAVCQNGGELLCCEKCPKVFHLSCHVPTLTNFPSGEWICTFCRDLSKPEVEYDCDAPSHNSEKKKTEGLVKLTPIDKRKCERLLLFLYCHEMSLAFQDPVPLTVPDYYKIIKNPMDLSTIKKRLQEDYSMYSKPEDFVADFRLIFQNCAEFNEPDSEVANAGIKLENYFEELLKNLYPEKRFPKPEFRNESEDNKFSDDSDDDFVQPRKKRLKSIEERQLLK |  |  |  |  |  |  |  |  | 4 | 4 |  | 
5 | NSD2 (protein, UniProt O96028 1-1365, looked up) Histone-lysine …: MEFSIKQSPLSVQSVVKCIKMKQAPEILGSANGKTPSCEVNRECSVFLSKAQLSSSLQEGVMQKFNGHDALPFIPADKLKDLTSRVFNGEPGAHDAKLRFESQEMKGIGTPPNTTPIKNGSPEIKLKITKTYMNGKPLFESSICGDSAADVSQSEENGQKPENKARRNRKRSIKYDSLLEQGLVEAALVSKISSPSDKKIPAKKESCPNTGRDKDHLLKYNVGDLVWSKVSGYPWWPCMVSADPLLHSYTKLKGQKKSARQYHVQFFGDAPERAWIFEKSLVAFEGEGQFEKLCQESAKQAPTKAEKIKLLKPISGKLRAQWEMGIVQAEEAASMSVEERKAKFTFLYVGDQLHLNPQVAKEAGIAAESLGEMAESSGVSEEAAENPKSVREECIPMKRRRRAKLCSSAETLESHPDIGKSTPQKTAEADPRRGVGSPPGRKKTTVSMPRSRKGDAASQFLVFCQKHRDEVVAEHPDASGEEIEELLRSQWSLLSEKQRARYNTKFALVAPVQAEEDSGNVNGKKRNHTKRIQDPTEDAEAEDTPRKRLRTDKHSLRKRDTITDKTARTSSYKAMEAASSLKSQAATKNLSDACKPLKKRNRASTAASSALGFSKSSSPSASLTENEVSDSPGDEPSESPYESADETQTEVSVSSKKSERGVTAKKEYVCQLCEKPGSLLLCEGPCCGAFHLACLGLSRRPEGRFTCSECASGIHSCFVCKESKTDVKRCVVTQCGKFYHEACVKKYPLTVFESRGFRCPLHSCVSCHASNPSNPRPSKGKMMRCVRCPVAYHSGDACLAAGCSVIASNSIICTAHFTARKGKRHHAHVNVSWCFVCSKGGSLLCCESCPAAFHPDCLNIEMPDGSWFCNDCRAGKKLHFQDIIWVKLGNYRWWPAEVCHPKNVPPNIQKMKHEIGEFPVFFFGSKDYYWTHQARVFPYMEGDRGSRYQGVRGIGRVFKNALQEAEARFREIKLQREARETQESERKPPPYKHIKVNKPYGKVQIYTADISEIPKCNCKPTDENPCGFDSECLNRMLMFECHPQVCPAGEFCQNQCFTKRQYPETKIIKTDGKGWGLVAKRDIRKGEFVNEYVGELIDEEECMARIKHAHENDITHFYMLTIDKDRIIDAGPKGNYSRFMNHSCQPNCETLKWTVNGDTRVGLFAVCDIPAGTELTFNYNLDCLGNEKTVCRCGASNCSGFLGDRPKTSTTLSSEEKGKKTKKKTRRRRAKGEGKRQSEDECFRCGDGGQLVLCDRKFCTKAYHLSCLGLGKRPFGKWECPWHHCDVCGKPSTSFCHLCPNSFCKEHQDGTAFSCTPDGRSYCCEHDLGAASVRSTKTEKPPPEPGKPKGKRRRRRGWRRVTEGK |  |  |  |  | 4 | 4 |  |  | 4 | 4 |  | 
6 | SUGP2 (protein, UniProt Q8IX01 1-1082, looked up) SURP and G-patch …: MAARRITQETFDAVLQEKAKRYHMDASGEAVSETLQFKAQDLLRAVPRSRAEMYDDVHSDGRYSLSGSVAHSRDAGREGLRSDVFPGPSFRSSNPSISDDSYFRKECGRDLEFSHSDSRDQVIGHRKLGHFRSQDWKFALRGSWEQDFGHPVSQESSWSQEYSFGPSAVLGDFGSSRLIEKECLEKESRDYDVDHPGEADSVLRGGSQVQARGRALNIVDQEGSLLGKGETQGLLTAKGGVGKLVTLRNVSTKKIPTVNRITPKTQGTNQIQKNTPSPDVTLGTNPGTEDIQFPIQKIPLGLDLKNLRLPRRKMSFDIIDKSDVFSRFGIEIIKWAGFHTIKDDIKFSQLFQTLFELETETCAKMLASFKCSLKPEHRDFCFFTIKFLKHSALKTPRVDNEFLNMLLDKGAVKTKNCFFEIIKPFDKYIMRLQDRLLKSVTPLLMACNAYELSVKMKTLSNPLDLALALETTNSLCRKSLALLGQTFSLASSFRQEKILEAVGLQDIAPSPAAFPNFEDSTLFGREYIDHLKAWLVSSGCPLQVKKAEPEPMREEEKMIPPTKPEIQAKAPSSLSDAVPQRADHRVVGTIDQLVKRVIEGSLSPKERTLLKEDPAYWFLSDENSLEYKYYKLKLAEMQRMSENLRGADQKPTSADCAVRAMLYSRAVRNLKKKLLPWQRRGLLRAQGLRGWKARRATTGTQTLLSSGTRLKHHGRQAPGLSQAKPSLPDRNDAAKDCPPDPVGPSPQDPSLEASGPSPKPAGVDISEAPQTSSPCPSADIDMKTMETAEKLARFVAQVGPEIEQFSIENSTDNPDLWFLHDQNSSAFKFYRKKVFELCPSICFTSSPHNLHTGGGDTTGSQESPVDLMEGEAEFEDEPPPREAELESPEVMPEEEDEDDEDGGEEAPAPGGAGKSEGSTPADGLPGEAAEDDLAGAPALSQASSGTCFPRKRISSKSLKVGMIPAPKRVCLIQEPKVHEPVRIAYDRPRGRPMSKKKKPKDLDFAQQKLTDKNLGFQMLQKMGWKEGHGLGSLGKGIREPVSVGTPSEGEGLGADGQEHKEDTFDVFRQRMMQMYRHKRANK |  |  |  |  |  |  |  |  | 4 | 4 |  | 
